According to the supplement of paper PMC10849652:
Some of the results follow.

How the values were obtained:
Experiment in all cases: log2 fold change, soluble protein after heating vs DMSO (PISA); higher = thermal stabilisation; K562 lysate, 10 uM; active = over 0.2 and 3.5 SD of the protein, either way, in both replicates (recomputed)
vemurafenib = compound: CCCS(=O)(=O)Nc1ccc(F)c(C(=O)c2c[nH]c3ncc(-c4ccc(Cl)cc4)cc23)c1F [vemurafenib]
In short: (§1)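 Values give the log-two fold change in thermal stability against solvent controls, from duplicates. Crude K562 extract at 1 mg/mL protein, made by dounce homogenisation in PBS pH 7.4 with 1 mM MgCl2, was treated with 10 μM compound for 30 min. After 3 min heating across 48°C-58°C, aliquots were pooled, adjusted to 0.5% NP-40 at 4°C and centrifuged at 21,000xg for 90 min. The supernatant was measured by TMTpro 16plex LC-MS/MS with channel sums equalised.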

[1] = compound: CCCS(=O)(=O)Nc1ccc(F)c(C(=O)c2c[nH]c3ncc(Cl)cc23)c1F
In short: as §1

barasertib = compound: CCN(CCCOc1ccc2c(Nc3cc(CC(=O)Nc4cccc(F)c4)[nH]n3)ncnc2c1)CCOP(=O)(O)O [barasertib]
In short: as §1

[2] = compound: CC[C@@H]1C(=O)N(C)c2cnc(Nc3ccc(C(=O)NC4CCN(C)CC4)cc3OC)nc2N1C1CCCC1
In short: as §1

volasertib = compound: CC[C@@H]1C(=O)N(C)c2cnc(Nc3ccc(C(=O)N[C@H]4CC[C@H](N5CCN(CC6CC6)CC5)CC4)cc3OC)nc2N1C(C)C [volasertib]
In short: as §1

[3] = compound: CCn1c(C(=O)N(C2CC2)C2CC2)cc2c3c(ncn3C)c(Nc3cc(C)n(C)n3)nc21
In short: as §1

[4] = compound: CCn1cc(-c2ccnc3[nH]c(-c4cccc(CN(C)C)c4)cc23)c(-c2ccc(NC(=O)N(C)C)cc2)n1
In short: as §1

[5] = compound: CN1CCC(CNc2ccc3ncc(-c4cccc(OC(F)(F)F)c4)n3n2)CC1
In short: as §1

saracatinib = compound: CN1CCN(CCOc2cc(OC3CCOCC3)c3c(Nc4c(Cl)ccc5c4OCO5)ncnc3c2)CC1 [saracatinib]
In short: as §1

sotrastaurin = compound: CN1CCN(c2nc(C3=C(c4c[nH]c5ccccc45)C(=O)NC3=O)c3ccccc3n2)CC1 [sotrastaurin]
In short: as §1

Measured: log2 fold change

PRPF6 (UniProt O94906)
inactive: vemurafenib -0.019 | [1] 0.004 | barasertib 0.039 | [2] -0.057 | volasertib -0.015 | [3] 0.019 | [4] 0.034 | [5] -0.049 | saracatinib 0.009 | sotrastaurin 0.025

PRPF31 (UniProt Q8WWY3)
inactive: vemurafenib 0 | [1] 0.014 | barasertib 0.007 | [2] -0.006 | volasertib -0.017 | [3] 0.042 | [4] 0.038 | [5] -0.032 | saracatinib 0.009 | sotrastaurin 0.015

PRKAB1 (UniProt Q9Y478)
inactive: vemurafenib -0.004 | [1] 0.04 | barasertib -0.04 | [2] 0.018 | volasertib -0.07 | [3] -0.008 | [4] 0.056 | [5] 0 | saracatinib 0.085 | sotrastaurin 0.036

PRMT7 (UniProt Q9NVM4)
inactive: vemurafenib 0.058 | [1] -0.006 | barasertib 0.018 | [2] -0.02 | volasertib 0.001 | [3] -0.013 | [4] 0.013 | [5] 0.003 | saracatinib 0.045 | sotrastaurin 0.009

PPP1R7 (UniProt Q15435)
inactive: vemurafenib -0.013 | [1] -0.009 | barasertib 0.018 | [2] -0.034 | volasertib 0.014 | [3] 0.028 | [4] -0.019 | [5] 0.003 | saracatinib -0.003 | sotrastaurin 0.009

PPP1R13L (UniProt Q8WUF5)
inactive: vemurafenib -0.023 | [1] 0.07 | barasertib 0.158 | [2] 0.119 | volasertib 0.066 | [3] -0.056 | [4] 0.023 | [5] 0.027 | sotrastaurin -0.032

PRPF39 (UniProt Q86UA1)
inactive: vemurafenib -0.015 | [1] -0.006 | barasertib 0.024 | [2] -0.064 | volasertib -0.084 | [3] 0.034 | [4] -0.051 | [5] 0.01 | saracatinib 0.004 | sotrastaurin 0.01

PPIL4 (UniProt Q8WUA2)
inactive: vemurafenib -0.004 | [1] 0.013 | barasertib -0.016 | [2] 0.061 | volasertib -0.019 | [3] -0.014 | [4] -0.012 | [5] 0.004 | saracatinib 0.012 | sotrastaurin 0.037

PRKACB isoform 2 (UniProt P22694)
inactive: vemurafenib -0.077 | [1] -0.016 | barasertib 0.013 | [2] -0.021 | volasertib -0.01 | [3] -0.072 | [4] -0.021 | [5] 0.125 | saracatinib 0.012 | sotrastaurin 0.175

PRMT3 (UniProt O60678)
inactive: vemurafenib 0.004 | [1] 0.02 | barasertib 0.013 | [2] 0.005 | volasertib -0.013 | [3] -0.015 | [4] 0.051 | [5] -0.143 | saracatinib -0.01 | sotrastaurin -0.013

PPM1A isoform 3 (UniProt P35813)
inactive: vemurafenib 0.022 | [1] 0.054 | barasertib -0.031 | [2] 0.004 | volasertib -0.025 | [3] 0.007 | [4] 0.024 | [5] 0.011 | saracatinib -0.006 | sotrastaurin 0.014

PPIP5K2 (UniProt H0Y9S9)
inactive: vemurafenib -0.054 | [1] -0.07 | barasertib -0.136 | [2] -0.048 | volasertib -0.313 | [3] 0.293 | saracatinib -0.101

PRIM2 (UniProt P49643)
inactive: vemurafenib 0.025 | [1] 0.04 | barasertib -0.005 | [2] -0.034 | volasertib -0.048 | [3] 0.019 | [4] -0.027 | [5] -0.046 | saracatinib -0.03 | sotrastaurin 0.02

PRDX5 (UniProt P30044)
inactive: vemurafenib -0.013 | [1] -0.005 | barasertib 0.016 | [2] 0.062 | volasertib 0.025 | [3] -0.015 | [4] -0.004 | [5] 0.01 | saracatinib -0.014 | sotrastaurin -0.014

PPME1 (UniProt Q9Y570)
inactive: [1] -0.042 | barasertib 0.026 | [2] 0.104 | volasertib -0.012 | saracatinib -0.043

PPM1J (UniProt Q5JR12)
inactive: [1] 0.117 | volasertib -0.078

PPP6R3 isoform 2 (UniProt Q5H9R7)
inactive: [3] -0.041 | [4] -0.18 | [5] -0.056

PRDM15 (UniProt P57071)
inactive: [3] 0.227 | saracatinib -0.324

PROSER3, A0A2R8Y8D9
inactive: saracatinib -0.033 | sotrastaurin 0.085

PRICKLE3 (UniProt O43900)
inactive: barasertib -0.079 | [3] -0.086

PROSER3 (UniProt Q2NL68)
inactive: vemurafenib -0.057 | [4] -0.012 | [5] 0.075 | sotrastaurin 0.023

PRADC1 (UniProt Q9BSG0)
active: barasertib -0.509
inactive: [1] 0.011 | volasertib 0.074 | [3] -0.05 | [4] 0.057 | [5] 0.101 | saracatinib 0.054 | sotrastaurin -0.015

PPP2R5C isoform 2 (UniProt Q13362)
inactive: vemurafenib 0.014 | barasertib -0.267 | [3] -0.081 | [4] -0.023 | [5] -0.033 | saracatinib 0.014 | sotrastaurin 0.134

PRNP (UniProt P04156)
inactive: [1] 0.003 | barasertib -0.038 | volasertib 0.034 | [3] -0.126 | [4] -0.064 | [5] 0.106 | saracatinib -0.131 | sotrastaurin 0.055

PPM1B isoform 2 (UniProt O75688)
inactive: [1] 0.12 | barasertib -0.073 | [2] -0.017 | volasertib -0.019 | [3] 0.069 | saracatinib 0.021

PPP1R12C isoform 3 (UniProt Q9BZL4)
inactive: barasertib 0.136 | [3] 0.028 | [4] 0.013 | [5] 0.141 | sotrastaurin -0.019

PRDM2 (UniProt Q13029)
inactive: vemurafenib -0.002 | [1] 0.029 | barasertib 0.013 | volasertib -0.078 | [3] 0.019 | [4] -0.016 | [5] 0.058 | saracatinib -0.03

PPP1R3E (UniProt Q9H7J1)
inactive: [4] -0.089 | [5] 0.186

PPP2CB (UniProt E5RHC1)
inactive: [1] -0.098 | barasertib 0.409 | volasertib -0.104 | [3] 0.073 | [4] 0.192 | [5] -0.135 | saracatinib -0.14 | sotrastaurin 0.063

PPP2R2D (UniProt Q66LE6)
inactive: vemurafenib -0.132 | [1] 0.022 | barasertib 0.054 | volasertib 0.018 | [3] 0.019 | [4] -0.116 | [5] 0.104 | saracatinib -0.009 | sotrastaurin 0.047

PPP1R3D (UniProt O95685)
inactive: vemurafenib 0.036 | [1] -0.039 | barasertib 0.012 | volasertib -0.024 | [3] -0.025 | [4] -0.07 | [5] 0.013 | sotrastaurin 0.053

PPP6R3 isoform 6 (UniProt Q5H9R7)
inactive: [3] -0.038 | [4] -0.37 | [5] 0.224

PPTC7 (UniProt Q8NI37)
inactive: vemurafenib -0.09 | [3] 0.054 | saracatinib -0.037

PRPF40A isoform 3 (UniProt O75400)
inactive: [1] -0.008 | [2] 0.044 | volasertib 0.016 | [3] 0.043

PPP1R7 isoform 2 (UniProt Q15435)
inactive: [1] -0.106 | volasertib 0.044 | [3] 0.021

PRG4 (UniProt Q92954)
inactive: [1] -0.038 | barasertib 0.332 | volasertib 0.054 | [3] -0.03 | [4] -0.179 | [5] 0.229 | saracatinib 0.009 | sotrastaurin -0.02

PPL (UniProt O60437)
inactive: barasertib 0.459 | [2] -0.004 | saracatinib 0.122 | sotrastaurin 0.14

PPP1R14A, A0A0B4J2A3
inactive: [1] -0.034 | volasertib -0.146

PPP1R15B (UniProt Q5SWA1)
inactive: [4] 0.038 | [5] -0.077

PRIMPOL (UniProt Q96LW4)
inactive: vemurafenib -0.02 | barasertib -0.083 | [2] -0.095 | [3] 0.011 | saracatinib 0.014 | sotrastaurin 0.089

PPP2R3B (UniProt Q9Y5P8)
inactive: [1] 0.007 | barasertib 0.124 | volasertib -0.02 | [4] 0.04 | [5] 0.065 | sotrastaurin 0.005

Quoted from the entries so far (ten entries):
PPP1R3D (UniProt O95685)
inactive: vemurafenib 0.036 | [1] -0.039 | barasertib 0.012 | volasertib -0.024 | [3] -0.025 | [4] -0.07 | [5] 0.013 | sotrastaurin 0.053

PPP6R3 isoform 6 (UniProt Q5H9R7)
inactive: [3] -0.038 | [4] -0.37 | [5] 0.224

PPTC7 (UniProt Q8NI37)
inactive: vemurafenib -0.09 | [3] 0.054 | saracatinib -0.037

PRPF40A isoform 3 (UniProt O75400)
inactive: [1] -0.008 | [2] 0.044 | volasertib 0.016 | [3] 0.043

PPP1R7 isoform 2 (UniProt Q15435)
inactive: [1] -0.106 | volasertib 0.044 | [3] 0.021

PRG4 (UniProt Q92954)
inactive: [1] -0.038 | barasertib 0.332 | volasertib 0.054 | [3] -0.03 | [4] -0.179 | [5] 0.229 | saracatinib 0.009 | sotrastaurin -0.02

PPL (UniProt O60437)
inactive: barasertib 0.459 | [2] -0.004 | saracatinib 0.122 | sotrastaurin 0.14

PPP1R14A, A0A0B4J2A3
inactive: [1] -0.034 | volasertib -0.146

PPP1R15B (UniProt Q5SWA1)
inactive: [4] 0.038 | [5] -0.077

PRIMPOL (UniProt Q96LW4)
inactive: vemurafenib -0.02 | barasertib -0.083 | [2] -0.095 | [3] 0.011 | saracatinib 0.014 | sotrastaurin 0.089

More records

PRH1 (UniProt P02810)
inactive: [4] 0.273 | [5] -0.333

PPP1R11 (UniProt O60927)
inactive: [1] 0.069 | barasertib -0.04 | [2] 0.153 | volasertib 0.046 | [3] -0.101 | [4] 0.16 | [5] -0.067 | saracatinib -0.05 | sotrastaurin 0.001

PREP (UniProt H0Y5Y0)
inactive: [1] 0.019 | volasertib 0.079 | [4] 0.678 | [5] -0.144

PRG2 (UniProt P13727)
inactive: [1] 0.006 | [2] 0.052 | volasertib -0.101 | saracatinib 0.141 | sotrastaurin -0.049

PPP1R7 (UniProt C9JD73)
inactive: [1] -0.13 | volasertib -0.026

Two records drawn at random from the list so far, as already listed:
PREP (UniProt H0Y5Y0)
inactive: [1] 0.019 | volasertib 0.079 | [4] 0.678 | [5] -0.144

PPP1R7 (UniProt C9JD73)
inactive: [1] -0.13 | volasertib -0.026

The list continues.

PRPF40B (UniProt Q6NWY9)
inactive: sotrastaurin 0.211

PRELID1 (UniProt Q9Y255)
inactive: vemurafenib -0.042 | barasertib 0.037 | [3] 0.119 | sotrastaurin -0.022
